PubChem BioAssay AID1508597, Cure First, 2020
Purpose: 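Survival screen with siRNA in ovarian cancer cells derived from patients, with or without rucaparib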 (primary screen). System: human ovarian carcinoma lines grown from tumours: OCI-P5x (papillary serous) and OCI-C5x (clear cell). Reagents: siRNA pool against human genes, 1.25 pmol siRNA per well. Time to read-out: 72 h or 96 h, depending on the cell culture. Treatment: rucaparib 20 µM (about IC30) or vehicle, present until read-out. Rucaparib or vehicle: Vehicle. Cell line: OCI-P5x (serous). Measured: 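ATP luminescence measured at 72 or 96 h according to the culture, then normalised and expressed as percent viability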. Reading the numbers: viability, normalised: higher = more viable cells remaining. Rule for the call: 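a well counts as a hit if its normalised viability is under 80 percent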. Calls: active = viability under 80%; inactive = viability 80% or more.
This is a random part of the about 2,100 reagents, under one of the conditions tested. 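Calls flag viability under 80% in either arm, not effects specific to rucaparib; the reference for percent is not stated.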 A number with no mark means an inactive call. A reagent listed more than once was tested more than once; the source does not tell the runs apart. No sequences are given here. The record does not give: the 100% reference.

| gene | technical replicate | viability, normalised (%) |
| --- | --- | --- |
| IFI6 | 1 | 44.6 (active) |
| IFI6 | 2 | 53.7 (active) |
| IFI6 | 3 | 47.8 (active) |
| MBD6 | 1 | 72.4 (active) |
| MBD6 | 2 | 83.4 |
| MBD6 | 3 | 89.1 |
| CBX8 | 1 | 81.5 |
| CBX8 | 2 | 86.8 |
| CBX8 | 3 | 74.3 (active) |
| APEX1 | 1 | 82.1 |
| APEX1 | 1 | 66.7 (active) |
| APEX1 | 2 | 76 (active) |
| APEX1 | 2 | 75.8 (active) |
| APEX1 | 3 | 77.5 (active) |
| APEX1 | 3 | 77.1 (active) |
| TIE1 | 1 | 86.6 |
| TIE1 | 1 | 62.2 (active) |
| TIE1 | 2 | 77.3 (active) |
| TIE1 | 2 | 63.6 (active) |
| TIE1 | 3 | 81.4 |
| TIE1 | 3 | 106 |
| NCOA1 | 1 | 42 (active) |
| NCOA1 | 2 | 40.7 (active) |
| NCOA1 | 3 | 43.9 (active) |
| SRPK3 | 1 | 75.7 (active) |
| SRPK3 | 2 | 66.2 (active) |
| SRPK3 | 3 | 79.8 (active) |
| BLNK | 1 | 32.5 (active) |
| BLNK | 2 | 54.8 (active) |
| BLNK | 3 | 52.7 (active) |
| POLA1 | 1 | 68.1 (active) |
| POLA1 | 1 | 66.1 (active) |
| POLA1 | 2 | 56.1 (active) |
| POLA1 | 2 | 60.8 (active) |
| POLA1 | 3 | 61.3 (active) |
| POLA1 | 3 | 52.7 (active) |
| IP6K2 | 1 | 71.2 (active) |
| IP6K2 | 2 | 80.1 |
| IP6K2 | 3 | 72.3 (active) |

Quoted from the listing (2 entries):
| gene | technical replicate | viability, normalised (%) |
| --- | --- | --- |
| CBX8 | 3 | 74.3 (active) |
| APEX1 | 1 | 82.1 |
